Source: article PMC11369092
No constants are given. Whether binding was seen depends on the method and setting. Binding calls can cover weak binding; strength is not graded here. Sequences can lack the tags named with a protein.

Biological target: recombinant GST-tagged RPL40
Test: pull-down; 2.5 ug Flag-SMYD5 and 1 ug GST-RPL40 mixed in 150 uL binding buffer (20 mM TrisCl 7.4, 150 mM NaCl, 0.2% Triton X-100), held on 10 uL GST resin, washed 4 times, SDS-PAGE and coomassie blue staining; Flag-SMYD5 alone as control; both purified

B1: Flag-tagged recombinant SMYD5 (enzyme, UniProt Q6GMV2 1-418)
chain: MAASMCDVFSFCVGVAGRARVSVEVRFVSSAKGKGLFATQLIRKGETIFVERPLVAAQFLWNALYRYRACDHCLRALEKAEENAQRLTGKPGQVLPHPELCTVRKDLHQNCPHCQVMYCSAECRLAATEQYHQVLCPGPSQDDPLHPLNKLQEAWRSIHYPPETASIMLMARMVATVKQAKDKDRWIRLFSQFCNKTANEEEEIVHKLLGDKFKGQLELLRRLFTEALYEEAVSQWFTPDGFRSLFALVGTNGQGIGTSSLSQWVHACDTLELKPQDREQLDAFIDQLYKDIEAATGEFLNCEGSGLFVLQSCCNHSCVPNAETSFPENNFLLHVTALEDIKPGEEICISYLDCCQRERSRHSRHKILRENYLFVCSCPKCLAEADEPNVTSEEEEEEEEEEEGEPEDAELGDEMTDV
binding: binds
